# Assay results taken from PubChem BioAssay AID2685 (National Center for Advancing Translational Sciences (NCATS), 2010).
# The whole screen tested about 320,000 compounds, of which about 2,100 (0.66%) were called active. This list was built around the results that the source calls inconclusive (neither active nor inactive); the mix of calls is not that of the screen. The call rests on the fitted dose curve; in most records, active means well fitted inhibition curve with a large enough effect in the signal ratio, with a control signal flat (not every such curve was filed as active); inconclusive means small, poorly fitted or top-dose-only effect, or effect the other way, or a change in a side signal; inactive means flat fitted curve, though single readings scatter; the % refers to the signal ratio. Potencies beside an inconclusive call are fits to weak or partial responses and may not hold up.
# Test: qHTS Assay for Lipid Storage Modulators in Drosophila S3 Cells
# Details: BODIPY lipid droplet fluorescence, 18-24 h, cells fed with added oleic acid; lipid storage change, negative = inhibition: at 46.1 µM (top of the series) unless noted
# Summary of the method: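 Drosophila S3 cells got compounds at several concentrations plus oleic acid (400 uM solution). Laser-scanning cytometry with 488 nm excitation read lipid droplets at 500-530 nm and cells at 575-640 nm. Percent activity was relative to 20 uM Triacsin C.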
# On the % scale 0 is the no-effect control and ±100 the full control effect; potency means the concentration at half of the fitted maximal effect.
Structure (SMILES),"lipid storage change, negative = inhibition",Potency
Cc1cc(C)cc(NC(=O)Cn2c(=O)oc3cc(S(=O)(=O)N4CCC(C)CC4)ccc32)c1,inconclusive: -8.34%,
O=C(Cc1cccs1)Nc1ccc(-c2nc3ccccc3[nH]2)cc1,inconclusive: -21.4%,
CCn1c(=O)n(CC)c2cc(N3CCCC3)c(NC(=O)c3ccccc3)cc21,,"inconclusive: 16.4 µM [falling, partial curve, poor fit]"
CNC1(c2nnnn2-c2ccccc2C)CCOC(C)(C)C1 (centres undefined),inconclusive: 33.2%,
CC(=O)Nc1ccc(/C(C)=N/NC(=O)c2ccc(CN3CCOCC3)cc2)cc1,,"inconclusive: 2.59 µM [cytotoxic, partial curve]"
Cc1ccc(NC(=O)COC(=O)c2ccc(=O)n(Cc3ccccc3)n2)cc1F,inconclusive,
CN(C)CCCCCN(C)Cc1cc2ccccc2o1,inconclusive: -11.6%,
COC(=O)c1sccc1-c1ccc(C(=O)Nc2cccnc2)o1,inconclusive: 26.8%,
O=C(CSc1cn[nH]n1)Nc1ccc(O)c(C(=O)O)c1,inconclusive: -60.3%,
COc1ccc(-c2noc(CNC(=O)c3ccoc3C)n2)cc1OC,inconclusive: -45.1%,
N=c1sccn1CC(=O)Nc1ccc(SC(F)F)cc1,inconclusive: -27.7%,
CC(=O)c1ccccc1OCCOCCOc1ccccc1C(C)=O,,"inconclusive: 11.6 µM [activator, partial curve]"
CCOc1ccc(NC(=O)CC2S/C(=N/N=C3CCCCCC3)NC2=O)cc1 (centres undefined),inconclusive: 28.3%,
Cc1ccc(C(=O)CN(C(=O)c2ccc(Cl)c(Cl)c2)N2C(=O)C3CCCCC3C2=O)cc1C (centres undefined),inconclusive: -41.2%,
O=C(COC(=O)c1cnccn1)c1ccc2c(c1)CCCC2,inconclusive: 4.01%,
CCC1CCC(N2CCN(c3ccccc3F)CC2)CC1 (centres undefined),inconclusive: 29.6%,
Oc1ccccc1C1CCCCC1c1ccccc1 (centres undefined),,"inconclusive: 1.64 µM [falling, partial curve, poor fit]"
Cc1ccc2nc(N(CCCN(C)C)C(=O)c3ccc4ncsc4c3)sc2c1,inconclusive: 73.4%,
O=C(COC(=O)/C=C/c1ccc(C(F)(F)F)cc1)NCCC1=CCCCC1,inconclusive: 16.5%,
CC(=O)c1cccc(NC(=O)Cn2nc(-c3ccc(Cl)cc3)ccc2=O)c1,inconclusive: 42.9%,
COc1ccc(-n2cc(CN(C)C3CCOCC3)c(-c3cccc(F)c3)n2)cc1,inconclusive: 11.2%,
CCCCN(CCCNC(=O)Cn1nc(CC)n2c(cc3sc(C)cc32)c1=O)Cc1ccccc1,inconclusive: -10.3%,
O=C(NNC(=O)C1CCN(Cc2cccc(F)c2)CC1)c1cccs1,inconclusive: 28.8%,
CC(C)CCNc1ncnc2c1nnn2Cc1ccccc1,inconclusive: -3.06%,
O=C(Nc1ncccc1Cl)C(Sc1ccccc1)c1ccccc1 (centres undefined),,"inconclusive: 29.1 µM [falling, single point]"

Structure (SMILES),"lipid storage change, negative = inhibition",Potency
O=C(NCCCn1ccnc1)c1cc(-c2cccnc2)nc2ccc(Br)cc12,inconclusive: 168%,
O=C(/C=C/c1ccccc1)c1ccccn1,,"inconclusive: 23.1 µM [cytotoxic, partial curve, poor fit]"
Cc1cc(Cl)ccc1OCC(=O)NCCOc1nc(N2CCCCC2)nc(N2CCOCC2)n1,,"inconclusive: 18.4 µM [activator, single point]"
CCC(N=c1cc(-c2ccc(OC)c(OC)c2)oc2ccc(C)cc12)C(=O)O (centres undefined),,"inconclusive: 32.6 µM [falling, single point]"
COC(=O)c1ccc(NC(=O)c2ccccc2)o1,,"inconclusive: 18.4 µM [cytotoxic, single point]"
COc1ccc(/C=C/C(=O)NCC(=O)N/N=C(/C)c2ccc(Cl)cc2)cc1,inconclusive: 22.3%,
CN1CCN(C(=O)c2ccc3c(c2)NC(=O)/C(=C/c2ccccc2)S3)CC1,inconclusive: -157%,
COc1cc(/C=N/Nc2nn3cnnc3c3ccccc23)ccc1O,,"inconclusive: 18.4 µM [falling, single point]"
O=C1C=C(c2ccc(F)cc2OCc2ccccc2)C[C@@H](c2ccc(Cl)cc2)C1,inconclusive: -49.2%,
CCOC(=O)C1CCN(C(=O)COc2ccc(Cl)cc2Cl)CC1,inconclusive: -0.0224%,
CCOC(=O)N1CCC(NC(=O)C(CC(C)C)NC(=O)C2CCCCC2)CC1 (centres undefined),,"inconclusive: 7.31 µM [falling, single point]"
CC(=O)c1cccc(NS(=O)(=O)c2cc3c(cc2C)NC(=O)CO3)c1,inconclusive: -92.2%,
Cc1ccc(C)c(S(=O)(=O)NCC(c2ccco2)N2CCc3ccccc3C2)c1 (centres undefined),inconclusive: 13%,
CC(=O)c1cccc(NC(=O)Nc2ccc3c(c2)CCC3)c1,inconclusive: -36.4%,
COc1cc(C(=O)O)nc2ccc([N+](=O)[O-])cc12,inconclusive: 18.6%,
O=C(NCSC1=NCCS1)c1ccccc1,inconclusive: 29.2%,
Cc1c(NC(=O)c2ccc(N3C(=O)C4C5C=CC(C5)C4C3=O)cc2)c(=O)n(-c2ccccc2)n1C (centres undefined),inconclusive: 12.6%,
COc1ccccc1OCCOc1ccc(/C=C2\C(=N)N3N=C(S(C)(=O)=O)SC3=NC2=O)cc1,inconclusive: 13.5%,
CCCn1c2ccccc2c2cnn(CC(=O)O)c(=O)c21,inconclusive: 11.2%,
CCOc1ccc(N(CC(=O)NCCc2ccccc2)S(=O)(=O)c2ccccc2)cc1,,"inconclusive: 0.116 µM [activator, full curve, poor fit]"
COc1ccc(C2=NS(=O)(=O)N(C)C(C(=O)N(C)Cc3ccccc3)=C2)cc1OC,inconclusive: -35.9%,
Cn1c(N)c(C(=O)CSc2nnc(C3CC3)n2Cc2ccccc2)c(=O)[nH]c1=O,inconclusive: 72.6%,
COc1ccc(N(C(=O)c2ccccc2C)S(=O)(=O)c2cccs2)cc1,,"inconclusive: 0.13 µM [falling, full curve, poor fit]"
COc1ccc(C(=O)C2CCN(C(=O)c3ccc(C)cc3)CC2)cc1,,"inconclusive: 29.1 µM [falling, single point]"

# Part of the list above, reformatted.
Structure (SMILES) | lipid storage change, negative = inhibition | Potency
COC(=O)c1ccc(NC(=O)c2ccccc2)o1 |  | inconclusive: 18.4 µM [cytotoxic, single point]
COc1ccc(/C=C/C(=O)NCC(=O)N/N=C(/C)c2ccc(Cl)cc2)cc1 | inconclusive: 22.3% | 
CN1CCN(C(=O)c2ccc3c(c2)NC(=O)/C(=C/c2ccccc2)S3)CC1 | inconclusive: -157% | 
COc1cc(/C=N/Nc2nn3cnnc3c3ccccc23)ccc1O |  | inconclusive: 18.4 µM [falling, single point]
O=C1C=C(c2ccc(F)cc2OCc2ccccc2)C[C@@H](c2ccc(Cl)cc2)C1 | inconclusive: -49.2% | 
CCOC(=O)C1CCN(C(=O)COc2ccc(Cl)cc2Cl)CC1 | inconclusive: -0.0224% | 
CCOC(=O)N1CCC(NC(=O)C(CC(C)C)NC(=O)C2CCCCC2)CC1 (centres undefined) |  | inconclusive: 7.31 µM [falling, single point]
CC(=O)c1cccc(NS(=O)(=O)c2cc3c(cc2C)NC(=O)CO3)c1 | inconclusive: -92.2% | 
Cc1ccc(C)c(S(=O)(=O)NCC(c2ccco2)N2CCc3ccccc3C2)c1 (centres undefined) | inconclusive: 13% | 
CC(=O)c1cccc(NC(=O)Nc2ccc3c(c2)CCC3)c1 | inconclusive: -36.4% | 
COc1cc(C(=O)O)nc2ccc([N+](=O)[O-])cc12 | inconclusive: 18.6% | 
O=C(NCSC1=NCCS1)c1ccccc1 | inconclusive: 29.2% | 
Cc1c(NC(=O)c2ccc(N3C(=O)C4C5C=CC(C5)C4C3=O)cc2)c(=O)n(-c2ccccc2)n1C (centres undefined) | inconclusive: 12.6% | 
COc1ccccc1OCCOc1ccc(/C=C2\C(=N)N3N=C(S(C)(=O)=O)SC3=NC2=O)cc1 | inconclusive: 13.5% | 
CCCn1c2ccccc2c2cnn(CC(=O)O)c(=O)c21 | inconclusive: 11.2% | 
